From the supplement of paper PMC10735217
Structures can show the parent of a compound that is named as a salt. Some of the results follow. This data set is noisy: repeats of one test often differ as much as different tests do.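 In a drug-repurposing library screen, luminescence reads luciferase driven by eight TEAD-binding elements, stably integrated into human kidney-derived cells. Compounds scoring over five robust Z scores above the plate mean are called hits.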

Test system: HEK293A TEAD-LUC reporter
Assay: TEAD-luciferase reporter activity (YAP activation), robust Z score vs plate; higher = stronger YAP/TEAD activation
Settings: 24 h

Row | SMILES | TEAD-luciferase reporter activity (compound concentration: 200 nM) | TEAD-luciferase reporter activity (compound concentration: 2 uM) | TEAD-luciferase reporter activity (compound concentration: 10 uM)
1 | NNCCc1ccccc1 [Phenelzine sulfate] | inactive: 4.36 | inactive: -0.142 | inactive: 3.87
2 | Cc1cc(C)c(NC(=O)CN(CC(=O)O)CC(=O)O)c(C)c1Br [Mebrofenin] | inactive: 3.39 | – | inactive: -0.18
3 | c1ccc(CN(CCN(Cc2ccccn2)Cc2ccccn2)Cc2ccccn2)nc1 | inactive: -0.709 | inactive: 0.781 | inactive: 3.6
4 | CN1CCN(c2nc(-c3ccc(C(=O)NC4(C(=O)NCC#N)CCCCC4)cc3)cs2)CC1 | inactive: -1.68 | inactive: -1.45 | inactive: 1.97
5 | CCCCC1OC(=O)c2ccccc21 (centres undefined) [butylphthalide, CSPC] | inactive: 2.73 | – | inactive: -1.42
6 | CCCCC1OC(=O)c2ccccc21 (centres undefined) [butylphthalide] | – | inactive: 0.0322 | –
7 | CC(C)CC1NC(=O)[C@@H](C(C)C)NC(=O)[C@@H]2CCCN2C(=O)[C@@H](CC(=O)O)NC(=O)[C@@H](Cc2c[nH]c3ccccc23)NC1=O (some centres undefined) | inactive: -1.4 | inactive: 0.73 | inactive: 1.66
8 | CC(C)C(=O)N1CCC(n2c(=O)[nH]c3ccccc32)CC1 | inactive: -1.36 | – | inactive: -0.516
9 | O=C(/C=C/c1ccc(O)cc1)NC[C@@H]1CN(c2ccc(N3CCOCC3)c(F)c2)C(=O)O1 | inactive: -0.605 | inactive: -0.817 | inactive: -1
10 | N=C(N)c1ccc(-c2ccccc2[N+](=O)[O-])o1 | inactive: 0.773 | inactive: -1.65 | inactive: 0.749
11 | Cc1nccnc1N1CCCCC1 | inactive: -1.33 | inactive: -0.475 | active: 5.46
12 | CCN(CC)CCSC(=O)C(c1ccccc1)c1ccccc1 | inactive: -0.86 | inactive: -2.17 | inactive: -1.29
13 | Cc1ccccc1N1CCN(CCc2nnc3n2CCCC3)CC1 [dapiprazole, ophthalmic] | inactive: -1.08 | inactive: 1.52 | inactive: -2.22
14 | NC(=O)OCC(COC(N)=O)c1ccccc1 [Felbamate] | inactive: -0.785 | – | inactive: 0.854
15 | NC(=O)OCC(COC(N)=O)c1ccccc1 [felbamate] | – | inactive: -0.489 | –
16 | C(=N\C12CC3CC(CC(C3)C1)C2)/N1CCC(c2cnc[nH]2)CC1 | inactive: 0.373 | inactive: 0.42 | inactive: 0.305
17 | Cc1noc(-c2ccc(-c3ccc(CC(=O)O)cc3)cc2)c1NC(=O)O[C@H](C)c1ccccc1Cl | inactive: -1.19 | inactive: -0.449 | inactive: -1.66
18 | Cc1cn(Cc2ccccc2)nc1OC(C)(C)C(=O)O | inactive: -0.855 | inactive: 0.54 | inactive: -0.463
19 | NCCc1c[nH]c(=S)n1[C@H]1COc2c(F)cc(F)cc2C1 [Etamicastat hydrochloride] | inactive: -0.747 | inactive: 1.06 | inactive: -0.539

Whole records as entered above.
CC(C)CC1NC(=O)[C@@H](C(C)C)NC(=O)[C@@H]2CCCN2C(=O)[C@@H](CC(=O)O)NC(=O)[C@@H](Cc2c[nH]c3ccccc23)NC1=O (some centres undefined) as listed: TEAD-luciferase reporter activity (compound concentration: 200 nM): inactive: -1.4; TEAD-luciferase reporter activity (compound concentration: 2 uM): inactive: 0.73; TEAD-luciferase reporter activity (compound concentration: 10 uM): inactive: 1.66
CCCCC1OC(=O)c2ccccc21 (centres undefined) [butylphthalide, CSPC] as listed: TEAD-luciferase reporter activity (compound concentration: 200 nM): inactive: 2.73; TEAD-luciferase reporter activity (compound concentration: 10 uM): inactive: -1.42
CCCCC1OC(=O)c2ccccc21 (centres undefined) [butylphthalide] as listed: TEAD-luciferase reporter activity (compound concentration: 2 uM): inactive: 0.0322

Further records follow.

Row | SMILES | TEAD-luciferase reporter activity (compound concentration: 200 nM) | TEAD-luciferase reporter activity (compound concentration: 2 uM) | TEAD-luciferase reporter activity (compound concentration: 10 uM)
20 | O=C(NC1CCC1)c1ccc2nccn2c1 | inactive: -1.06 | – | inactive: -1.42
21 | COc1ccc(/C=C\c2cc(OC)c(OC)c(OC)c2)cc1OP(=O)([O-])[O-] [fosbretabulin tromethamine] | inactive: -0.355 | – | inactive: 0.996
22 | C[C@]1(O)[C@H](O)[C@@H](CO)O[C@H]1n1ccc(N)nc1=O | inactive: -0.551 | – | inactive: -0.648
23 | C[C@H](Nc1ncnc2[nH]cnc12)c1cc2ccc(F)cc2nc1-c1ccccn1 | inactive: -0.94 | inactive: -0.573 | inactive: -0.291
24 | CC12CCC3C(C1)c1c(cc(O)cc1OC3(C)C)O2 (centres undefined) | inactive: 0.126 | inactive: -0.869 | inactive: -0.275
25 | CN(c1nccc(=O)[nH]1)C1CCN(c2nc3ccccc3n2Cc2ccc(F)cc2)CC1 [mizolastine] | inactive: -1.85 | inactive: 0.374 | inactive: 2.03
26 | Cc1cnc2c(c1)CCCC2C(N)=S (centres undefined) [Tiquinamide] | inactive: -0.337 | inactive: 0.309 | inactive: -0.419
27 | O=C1CN(/N=C/c2ccc(-c3ccc([N+](=O)[O-])cc3)o2)C(=O)N1 [dantrolene sodium] | – | inactive: 2.36 | –
28 | O=C1CN(/N=C/c2ccc(-c3ccc([N+](=O)[O-])cc3)o2)C(=O)N1 [Dantrolene??Sodium] | inactive: -1.73 | – | inactive: 0.627
29 | CC1(C)C=C(n2ccccc2=O)c2cc(C#N)ccc2C1=O | inactive: -1.4 | inactive: 0.83 | inactive: -1.73
30 | CCOc1ccc(C=C2NCCc3cc(OCC)c(OCC)cc32)cc1OCC [Drotaverine hydrochloride] | active: 5.91 | inactive: -0.711 | inactive: -1.05
31 | C[C@H](CCC(=O)NCCS(=O)(=O)O)[C@H]1CC[C@H]2[C@@H]3[C@@H](O)C[C@@H]4C[C@H](O)CC[C@]4(C)[C@H]3CC[C@]12C [Sodium tauroursodeoxycholate (Tudca)] | inactive: -0.171 | – | inactive: 0.806
32 | C[C@H](CCC(=O)NCCS(=O)(=O)O)[C@H]1CC[C@H]2[C@@H]3[C@@H](O)C[C@@H]4C[C@H](O)CC[C@]4(C)[C@H]3CC[C@]12C [Ursodeoxycholyltaurine] | – | inactive: -0.245 | –
33 | CCCOc1cc(N)c(Cl)cc1C(=O)NC1CCN(CCCC2CCCO2)CC1 (centres undefined) | inactive: -0.586 | inactive: -1.19 | inactive: 2.05
34 | O=c1[nH]sc2cc(Cl)ccc12 | inactive: 2.27 | inactive: -0.859 | inactive: 2.46
35 | N=C(NCCCCCCCCCCCN)NC(=O)c1nc(Cl)c(N)nc1N | inactive: -0.714 | inactive: 2.03 | inactive: -0.329
36 | CC(=O)OCCN1CCN(CC/C=C2\c3ccccc3Sc3ccc(Cl)cc32)CC1 [Zuclopenthixol acetate] | inactive: -0.214 | inactive: 1.05 | inactive: -1.6
37 | Cc1cn([C@H]2C[C@H](F)[C@@H](CO)O2)c(=O)[nH]c1=O [Alovudine] | inactive: -0.926 | inactive: -0.939 | inactive: 1.97
